These are yes or no findings as the source states them, for the method shown. A result given as binding can be weak or reduced; the word gives no strength.
Target: T1, TRAF6 (full-length), bait of the in vitro virus selection (UniProt P70196)
T1 sequence: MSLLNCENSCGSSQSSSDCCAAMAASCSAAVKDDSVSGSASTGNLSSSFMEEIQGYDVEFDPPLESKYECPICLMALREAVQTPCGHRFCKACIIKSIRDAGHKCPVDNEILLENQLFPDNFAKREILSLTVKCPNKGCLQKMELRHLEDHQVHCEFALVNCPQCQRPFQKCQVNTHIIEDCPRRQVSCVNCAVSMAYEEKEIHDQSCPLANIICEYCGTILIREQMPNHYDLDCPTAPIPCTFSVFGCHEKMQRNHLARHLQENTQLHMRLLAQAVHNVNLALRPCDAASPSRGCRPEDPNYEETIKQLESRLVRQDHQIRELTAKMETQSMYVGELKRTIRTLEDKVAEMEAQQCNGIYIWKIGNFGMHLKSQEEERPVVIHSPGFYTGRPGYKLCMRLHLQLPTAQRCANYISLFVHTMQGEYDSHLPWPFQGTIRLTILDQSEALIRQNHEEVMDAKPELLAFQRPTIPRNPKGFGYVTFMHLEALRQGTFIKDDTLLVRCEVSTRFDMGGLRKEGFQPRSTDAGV
Assay: in vitro virus (IVV) selection; mRNA templates of bait (full-length TRAF6) and prey (mouse fetal thymus cDNA library) cotranslated in wheat germ extract for 1 h at 26°C; four rounds of selection; mock selection without bait as negative control

Row | Substance | binding
1 | RNA binding motif protein 39, peptide selected by IVV (mouse) (domain or fragment) | binds
2 | WAS protein homology region 2 domain containing 1, peptide selected by IVV (mouse) (domain or fragment) | binds
